The source of these data is publication PMC12963976.

By UniProt entry, the sequences of proteins in these tests, tags left out. Where a name states a change or a piece, a line headed by the entry shows the natural chain unless it says otherwise.
UniProt P15208: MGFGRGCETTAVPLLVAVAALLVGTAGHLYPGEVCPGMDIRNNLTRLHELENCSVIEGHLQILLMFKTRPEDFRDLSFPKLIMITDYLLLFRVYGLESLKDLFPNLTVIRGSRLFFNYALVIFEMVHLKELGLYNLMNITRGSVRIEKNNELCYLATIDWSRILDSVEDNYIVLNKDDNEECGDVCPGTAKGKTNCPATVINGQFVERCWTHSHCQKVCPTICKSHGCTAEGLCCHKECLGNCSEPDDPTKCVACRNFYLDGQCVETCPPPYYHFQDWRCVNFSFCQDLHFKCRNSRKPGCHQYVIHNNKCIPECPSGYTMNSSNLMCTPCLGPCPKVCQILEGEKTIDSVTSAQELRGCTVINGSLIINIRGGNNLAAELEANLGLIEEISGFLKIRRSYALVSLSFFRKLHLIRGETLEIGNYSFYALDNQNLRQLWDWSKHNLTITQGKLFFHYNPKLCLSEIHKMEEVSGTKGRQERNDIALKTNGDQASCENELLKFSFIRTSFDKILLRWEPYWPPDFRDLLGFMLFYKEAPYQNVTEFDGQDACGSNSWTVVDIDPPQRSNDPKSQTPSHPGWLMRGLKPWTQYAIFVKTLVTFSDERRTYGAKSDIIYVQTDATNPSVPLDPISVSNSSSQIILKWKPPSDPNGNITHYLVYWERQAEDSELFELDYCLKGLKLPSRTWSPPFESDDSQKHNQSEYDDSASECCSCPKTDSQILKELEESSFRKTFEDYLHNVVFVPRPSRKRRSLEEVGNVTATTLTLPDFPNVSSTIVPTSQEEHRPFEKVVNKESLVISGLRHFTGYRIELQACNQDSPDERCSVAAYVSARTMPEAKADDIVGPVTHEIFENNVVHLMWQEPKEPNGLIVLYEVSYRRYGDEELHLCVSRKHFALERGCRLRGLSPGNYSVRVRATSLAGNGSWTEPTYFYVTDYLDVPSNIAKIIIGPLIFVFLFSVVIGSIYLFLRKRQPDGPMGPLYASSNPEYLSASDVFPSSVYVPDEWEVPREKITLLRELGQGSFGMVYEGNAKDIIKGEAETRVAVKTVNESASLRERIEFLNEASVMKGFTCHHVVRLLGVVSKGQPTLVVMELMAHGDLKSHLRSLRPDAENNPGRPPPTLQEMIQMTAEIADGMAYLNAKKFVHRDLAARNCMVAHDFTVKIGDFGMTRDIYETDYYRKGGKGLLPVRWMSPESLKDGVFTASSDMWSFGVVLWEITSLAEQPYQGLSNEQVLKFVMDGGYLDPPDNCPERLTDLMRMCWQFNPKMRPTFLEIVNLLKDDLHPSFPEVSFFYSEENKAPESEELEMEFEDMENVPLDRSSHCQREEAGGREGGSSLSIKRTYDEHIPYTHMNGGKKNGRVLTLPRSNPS

The target in this assay is insulin receptor (INSR), endogenous in mouse skeletal muscle (mouse (endogenous in skeletal muscle)) (UniProt P15208). In words: co-IP; 500 ug mouse skeletal muscle (gastrocnemius) lysate with 2 ug INSR antibody (sc-711) at 4 °C overnight, Protein G magnetic beads, western blot; mice injected with PBS or insulin (1.5 U/kg), muscle collected after 5 or 10 minutes. On the technique in general: Immunoblotting shows a protein as a band on a membrane.

These are yes or no findings as the source states them, for the method shown. Binding seen in cells or lysates may run through a third protein. Some binding calls cover weakened binding; strength is not graded here.

B1: caveolin-3 (CAV3) (protein, UniProt P51637 1-151)
chain: MMTEEHTDLEARIIKDIHCKEIDLVNRDPKNINEDIVKVDFEDVIAEPEGTYSFDGVWKVSFTTFTVSKYWCYRLLSTLLGVPLALLWGFLFACISFCHIWAVVPCIKSYLIEIQCISHIYSLCIRTFCNPLFAALGQVCSNIKVVLRREG
In the case of B1, the binding entry is reported as “binds”.
